The whole screen tested about 390,000 compounds, of which about 4,000 (1%) were called active. The shares of active, inactive and inconclusive entries below differ from those in the screen. Calls come from the whole dose curve; as a rule, active = well fitted inhibition curve with a large enough effect; inconclusive = small, poorly fitted or top-dose-only effect, or another doubt; inactive = no such curve, though single readings can be large or run the other way. Potencies of inconclusive entries are doubtful fits and often do not repeat.
These compounds were tested against DNA polymerase iota (Homo sapiens) (UniProt Q9UNA4) (assay: qHTS for Inhibitors of Polymerase Iota). Settings: Pol iota fluorescent replication assay, 10 min; series mostly up to 115 µM; activity, negative = inhibition: at the top concentration.
How it was run: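 Pol iota at 10 nM preincubated 15 min with compounds at room temperature; reaction started with fluorescent substrate, 50 nM final. Fluorescence read kinetically at 0 and 10 min; buffer-only wells as negative control.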
Potency is the fitted concentration of half-maximal effect.

The chains behind the UniProt entries cited, without tags or fusion partners. Where a name states a change or a piece, a line headed by the entry shows the natural chain unless it says otherwise.
UniProt Q9UNA4: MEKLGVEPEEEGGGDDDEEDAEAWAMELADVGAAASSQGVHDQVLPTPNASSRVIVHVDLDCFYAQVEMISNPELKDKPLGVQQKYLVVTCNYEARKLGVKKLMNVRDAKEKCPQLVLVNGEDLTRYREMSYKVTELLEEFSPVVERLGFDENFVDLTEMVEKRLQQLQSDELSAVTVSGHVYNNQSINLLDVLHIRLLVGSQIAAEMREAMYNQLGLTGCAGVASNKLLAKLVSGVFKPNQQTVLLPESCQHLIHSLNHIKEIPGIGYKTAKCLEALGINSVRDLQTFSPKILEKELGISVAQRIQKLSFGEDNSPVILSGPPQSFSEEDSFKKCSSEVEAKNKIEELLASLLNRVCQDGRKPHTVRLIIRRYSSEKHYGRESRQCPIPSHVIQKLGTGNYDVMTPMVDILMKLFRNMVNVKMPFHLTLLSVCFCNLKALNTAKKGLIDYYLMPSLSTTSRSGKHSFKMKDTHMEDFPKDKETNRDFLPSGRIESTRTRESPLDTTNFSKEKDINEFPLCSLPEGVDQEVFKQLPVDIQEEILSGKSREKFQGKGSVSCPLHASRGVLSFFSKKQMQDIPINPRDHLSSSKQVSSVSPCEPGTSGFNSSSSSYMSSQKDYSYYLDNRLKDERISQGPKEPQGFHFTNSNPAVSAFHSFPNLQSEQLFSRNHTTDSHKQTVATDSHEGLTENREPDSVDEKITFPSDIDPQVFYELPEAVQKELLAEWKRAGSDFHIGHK

Row | SMILES | Potency | activity, negative = inhibition
1 | O=C(NNC1=C(C(=O)C(F)(F)F)CCC1)c1ccc(Cl)cc1 | inconclusive: 79.4 µM [inhibitor, partial curve, poor fit] | 
2 | S=c1[nH]nc(Nc2ccccc2Cl)s1 |  | inactive: 83.7%
3 | COc1ccc(NS(=O)(=O)c2ccc(SC)cc2)cc1 | inconclusive: 63.1 µM [inhibitor, partial curve, poor fit] | 
4 | CC1(OC(=O)C2CCCC2)C(=O)C=C2C=C(c3ccsc3)N(Cc3ccco3)C=C2C1=O (configuration not stated) | inconclusive: 12.6 µM [inhibitor, full curve, poor fit] | 
5 | COCc1[nH]nc2c1C(c1ccc(OC)c(OC)c1)C(C#N)=C(N)O2 (configuration not stated) | inconclusive: 10 µM [inhibitor, partial curve, poor fit] | 
6 | CC(C)(C)OC(=O)N1CCC(c2c(C(=O)NCc3ccco3)cnn2-c2ccccc2)CC1 |  | inactive: -2.83%
7 | Cc1ccc(NC(=O)Cn2cnc3nc4c(cc3c2=O)CCCC4)cc1Cl |  | inactive: -12.5%
8 | Cc1cc2sc3ccccc3c(=O)c2c(C)c1O | inconclusive: 31.6 µM [inhibitor, partial curve, poor fit] | 
9 | COc1cccc(CN(C)C(=O)CN2C(=O)NC(c3ccccc3)(c3ccccc3)C2=O)c1 |  | inactive: 21.5%
10 | O=C1C2C3C=CC(C3)C2C(=O)N1c1ncn[nH]1 (configuration not stated) | inconclusive: 70.8 µM [inhibitor, partial curve, poor fit] | 
11 | O=C(Cn1cc(C(=O)c2ccco2)c2ccccc21)Nc1ccccc1Cl | inconclusive: 89.1 µM [inhibitor, partial curve] | 
12 | COc1ccc(NC(=O)Cn2c(C)cc(=O)c3ccccc32)cc1 | inconclusive: 89.1 µM [inhibitor, single point] | 
13 | CCCOC(=O)/C(=C\C=C\c1ccco1)NC(=O)c1ccccc1 | inconclusive: 22.4 µM [inhibitor, full curve] | 
14 | Cc1ccc(OCC(=O)N/N=C/C=C/c2ccco2)cc1C | inconclusive: 44.7 µM [inhibitor, partial curve] | 
15 | NNc1nc2cc3c(cc2s1)OCCO3 | inconclusive: 89.1 µM [inhibitor, single point] | 
16 | Cc1cc2nc(C)n(CCCNC(=O)Nc3cccc4ccccc34)c2cc1C | inconclusive: 50.1 µM [inhibitor, partial curve] | 
17 | CCC1=NN2C(=N)/C(=C/c3cc(C)n(Cc4ccccc4)c3C)C(=O)N=C2S1 |  | inactive: 141%
18 | Cn1c(N)c(C(=O)COC(=O)c2cc(-c3ccco3)nc3ccccc23)c(=O)n(C)c1=O | active: 7.08 µM | 
19 | N#CNc1nc(O)cc(=O)[nH]1 | inconclusive: 10 µM [inhibitor, partial curve, poor fit] | 
20 | COCCNC(=O)CCc1c(C)nc2c(c(C)nn2-c2ccc(C)cc2)c1C | inconclusive: 4.47 µM [inhibitor, partial curve, poor fit] | 
21 | CCOc1ccc(NC(=O)c2c(NCc3sccc3C)sc3c2CCCCC3)cc1 | inconclusive: 14.1 µM [inhibitor, partial curve, poor fit] | 

Row | SMILES | Potency | activity, negative = inhibition
22 | Cc1ccc2c(c1C)NC(=O)C2(O)CC(=O)c1ccc2c(c1)OCO2 (configuration not stated) | inconclusive: 14.1 µM [inhibitor, full curve, poor fit] | 
23 | O=c1cc(CN2CCN(c3cccc(Cl)c3)CC2)c2cc(O)c(-c3ccccc3)cc2o1 | inconclusive: 3.98 µM [inhibitor, full curve, poor fit] | 
24 | CN(CC(=O)Nc1ccccc1Cl)C(=O)COC(=O)c1ccc([N+](=O)[O-])s1 | inconclusive: 56.2 µM [inhibitor, partial curve, poor fit] | 
25 | CC(C)(C)C1CCc2sc(C(=O)NNC(=O)CCl)cc2C1 (configuration not stated) | inconclusive: 89.1 µM [inhibitor, partial curve] | 
26 | N#Cc1c(NC(=O)CSc2nnc(-c3ccccc3)o2)sc2c1CCCC2 | inconclusive: 22.4 µM [inhibitor, single point] | 
27 | COc1ccc(S(=O)(=O)N2CCN(Cc3ccc4c(c3)OCO4)CC2)cc1F | inconclusive: 89.1 µM [inhibitor, partial curve, poor fit] | 
28 | CC(=O)Nc1cccc(NC(=O)CSc2ccc(-c3cccnc3)nn2)c1 | active: 14.1 µM | 
29 | O=C(Nc1ccc(F)cc1F)c1cc2c(=O)n3ccccc3nc2s1 | inconclusive: 100 µM [inhibitor, single point] | 
30 | COc1ccc2c(c1OC)C(=O)N1c3ccccc3C(=O)N(Cc3ccco3)C21 (configuration not stated) |  | inactive: -3.41%
31 | O=C(O)c1ccc(-n2cccc2/C=C2/NC(=O)N(c3ccccc3)C2=O)cc1 | active: 3.16 µM | 
32 | CCc1cccc(NC(=O)CCc2nc3cccnc3n2-c2ccccc2)c1 |  | inactive: 19.1%
33 | O=c1c(C(c2ccc(O)cc2)c2c(O)nc3n(c2=O)CCS3)c(O)nc2n1CCS2 |  | inactive: -26.1%
34 | O=c1c2cc(N3CCOCC3)ccc2[nH]c(=S)n1Cc1ccco1 | active: 10 µM | 
35 | COc1ccc(/C=C2\Sc3ccc(C(=O)N4CCOCC4)cc3N(C)C2=O)cc1 | inconclusive: 39.8 µM [inhibitor, partial curve, poor fit] | 
36 | CCOC1=C/C(=C/c2c(N)n3nc(S(=O)(=O)CC)sc3nc2=O)C=CC1=O | inconclusive: 12.6 µM [inhibitor, partial curve] | 
37 | Cc1c(Cl)cccc1N1C(N)=C(C#N)C(c2cc(CN3CCOCC3)cs2)C2=C1CCCC2=O (configuration not stated) |  | inactive: 56.5%
38 | COc1ccc(C(c2nnnn2C2CCCC2)N2CCN(C(=O)c3ccco3)CC2)cc1OC (configuration not stated) | inconclusive: 12.6 µM [inhibitor, full curve, poor fit] | 
39 | N#Cc1c(NC(=O)CCC(=O)O)sc2c1CCCCC2 | inconclusive: 17.8 µM [inhibitor, partial curve, poor fit] | 
40 | Cc1nc2oc3c(NCc4ccccc4)ncnc3c2c2c1COC(C)(C)C2 |  | inactive: 19.5%
41 | O=C1NN(c2ccccc2)C(=O)/C1=C\c1cccc(OC(=O)c2cccs2)c1 | inconclusive: 5.01 µM [inhibitor, full curve, poor fit] | 
42 | O=C(/C=C/c1ccco1)NC(=S)N1CCCCC1 | inconclusive: 15.8 µM [inhibitor, partial curve, poor fit] | 

Quoted from the listing:
`Cc1nc2oc3c(NCc4ccccc4)ncnc3c2c2c1COC(C)(C)C2` – activity, negative = inhibition: inactive: 19.5%
`COc1ccc(/C=C2\Sc3ccc(C(=O)N4CCOCC4)cc3N(C)C2=O)cc1` – Potency: inconclusive: 39.8 µM [inhibitor, partial curve, poor fit]
`CN(CC(=O)Nc1ccccc1Cl)C(=O)COC(=O)c1ccc([N+](=O)[O-])s1` – Potency: inconclusive: 56.2 µM [inhibitor, partial curve, poor fit]

Source: PubChem BioAssay AID588590 (National Center for Advancing Translational Sciences (NCATS), 2011)
